Tested on: Malat1 ASO-TCO
Test: Reaction of [19F] tetrazines with Malat1 ASO-TCO monitored by LC-MS
Conditions: two equivalents tetrazine, water, room temperature, 30 min
Source text: Based on literature precedent, the tetrazines claimed herein would be expected to have utility as prosthetic groups for the labeling of biomolecules. The reactivity of tetrazines N-(4-(1,2,4,5-tetrazin-3-yl)benzyl)-2-fluoropicolinamide and N-(4-(1,2,4,5-tetrazin-3-yl)benzyl)-6-fluoropicolinamide with trans cyclooctene (TCO) conjugated to a biomolecule, Malat1 antisense oligonucleotide (ASO) (2019 World Molecular Imaging Congress Conference, Poster 139), was confirmed in both [^19F] and [^18F] experiments monitored with LC-MS and HPLC-radiodetection, respectively.
To a solution of 2.5 mg/mL (2.67 μM) Malat1 ASO-TCO in water, two equivalents tetrazine was added, and gently shaken at room temperature, protected from light, for 30 min. The reaction mixture was monitored by ES/MS on a Waters® Acquity UPLC system equipped with a Waters® Xevo QT of mass spectrometer. LC-MS conditions were as follows: column: Waters® ACQUITY PREMIER UPLC Oligonucleotide BEH C18 (130 Å. 1.7 μm, 2.1 mm×50 mm); wavelength 250-650 nm; gradient: initial hold at 5% B for 3.5 min, 5-75% B in 1.5 min, hold 75% B for 4 min, increase from 75-98% B in 0.5 min, hold 98% B for 1 min, and return to 5% B to reequilibrate; column temperature: 70° C. +/−5° C.; flow rate: 0.2 mL/min; solvent for A: 7 mM TEA and 100 mM HFIP in water; solvent for B; 7 mM TEA and 100 mM HFIP in 75% methanol/25% acetonitrile. […]

## O=C(NCc1ccc(-c2nncnn2)cc1)c1cccc(F)n1 [Example 3, N-(4-(1,2,4,5-tetrazin-3-yl)benzyl)-6-fluoropicolinamide]
  Reaction of Malat1 ASO-TCO with tetrazine (LC-MS): full reaction

## O=C(NCc1ccc(-c2nncnn2)cc1)c1cccnc1F [Example 1, N-(4-(1,2,4,5-tetrazin-3-yl)benzyl)-2-fluoronicotinamide]
  Reaction of Malat1 ASO-TCO with tetrazine (LC-MS): full reaction
